Experimental data from the supplement of paper PMC12823440, “Inhibitors supercharge kinase turnover through native proteolytic circuits” (Nature, 2025).
Where a name gives a salt, the structure may show the parent alone. Some of the results follow. The calls rarely recur for the same compound in another form.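 Kinases were expressed as nanoluciferase fusions in K562 cells and luminescence was read every 4 h between 2 and 18 h as percent of control, DMSO set to 100% and a positive control to 0%. A time point counts as decreased when the signal drops significantly (2 sigma). The hit call is the authors' own, does not follow from the count of time points alone, and its rule is not shown.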

Chains of the proteins cited; added tags and fusions are not shown. Lines headed by an entry give the natural chain unless they say otherwise; changes in a name come on top.
UniProt P48730: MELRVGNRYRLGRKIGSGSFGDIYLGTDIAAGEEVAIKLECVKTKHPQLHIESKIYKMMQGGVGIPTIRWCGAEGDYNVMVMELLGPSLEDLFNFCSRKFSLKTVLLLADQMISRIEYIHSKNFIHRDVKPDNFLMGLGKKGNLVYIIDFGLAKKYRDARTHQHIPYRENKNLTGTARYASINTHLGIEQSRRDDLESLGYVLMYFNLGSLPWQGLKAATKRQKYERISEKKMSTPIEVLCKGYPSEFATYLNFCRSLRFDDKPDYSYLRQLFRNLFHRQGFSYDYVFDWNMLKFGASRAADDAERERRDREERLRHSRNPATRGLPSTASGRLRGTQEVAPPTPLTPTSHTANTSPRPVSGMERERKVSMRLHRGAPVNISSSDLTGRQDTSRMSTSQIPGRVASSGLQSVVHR
UniProt Q08345: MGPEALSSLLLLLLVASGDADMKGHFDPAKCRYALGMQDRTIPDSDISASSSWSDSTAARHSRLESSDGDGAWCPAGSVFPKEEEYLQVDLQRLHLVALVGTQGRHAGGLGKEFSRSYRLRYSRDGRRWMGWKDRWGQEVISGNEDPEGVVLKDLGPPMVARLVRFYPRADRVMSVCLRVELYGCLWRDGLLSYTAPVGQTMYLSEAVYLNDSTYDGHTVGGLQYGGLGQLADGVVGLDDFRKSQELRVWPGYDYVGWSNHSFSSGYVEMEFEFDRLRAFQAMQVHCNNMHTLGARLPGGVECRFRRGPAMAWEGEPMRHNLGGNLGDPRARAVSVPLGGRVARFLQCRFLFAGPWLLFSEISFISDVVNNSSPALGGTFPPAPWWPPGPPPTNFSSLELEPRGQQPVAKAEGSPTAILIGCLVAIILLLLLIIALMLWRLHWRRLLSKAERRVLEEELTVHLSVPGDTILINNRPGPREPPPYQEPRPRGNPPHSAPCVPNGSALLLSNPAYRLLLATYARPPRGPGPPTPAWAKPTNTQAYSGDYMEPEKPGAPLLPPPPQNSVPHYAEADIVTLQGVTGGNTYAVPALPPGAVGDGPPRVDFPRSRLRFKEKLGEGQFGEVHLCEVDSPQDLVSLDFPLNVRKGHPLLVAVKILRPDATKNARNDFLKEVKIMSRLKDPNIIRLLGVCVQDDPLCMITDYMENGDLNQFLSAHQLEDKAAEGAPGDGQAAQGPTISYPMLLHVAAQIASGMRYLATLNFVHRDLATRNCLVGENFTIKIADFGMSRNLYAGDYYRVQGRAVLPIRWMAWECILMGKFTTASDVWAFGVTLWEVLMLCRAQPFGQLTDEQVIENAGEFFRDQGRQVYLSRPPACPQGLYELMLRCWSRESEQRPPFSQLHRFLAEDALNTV
UniProt Q92630: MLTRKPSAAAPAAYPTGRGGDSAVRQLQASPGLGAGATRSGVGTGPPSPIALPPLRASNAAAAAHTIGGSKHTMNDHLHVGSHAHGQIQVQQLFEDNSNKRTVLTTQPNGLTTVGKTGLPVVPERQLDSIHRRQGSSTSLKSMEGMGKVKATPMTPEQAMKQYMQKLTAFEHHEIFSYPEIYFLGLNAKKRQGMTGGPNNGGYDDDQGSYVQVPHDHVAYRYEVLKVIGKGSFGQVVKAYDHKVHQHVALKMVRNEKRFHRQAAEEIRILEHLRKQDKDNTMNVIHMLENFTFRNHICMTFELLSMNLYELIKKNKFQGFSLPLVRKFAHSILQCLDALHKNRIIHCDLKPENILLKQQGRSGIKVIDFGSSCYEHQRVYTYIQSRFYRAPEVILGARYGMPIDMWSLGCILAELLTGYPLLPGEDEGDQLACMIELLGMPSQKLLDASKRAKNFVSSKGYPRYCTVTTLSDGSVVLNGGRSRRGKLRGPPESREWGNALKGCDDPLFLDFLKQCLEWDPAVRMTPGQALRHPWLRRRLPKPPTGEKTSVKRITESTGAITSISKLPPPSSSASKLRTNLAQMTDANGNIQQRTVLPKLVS
UniProt P21860, whole entry: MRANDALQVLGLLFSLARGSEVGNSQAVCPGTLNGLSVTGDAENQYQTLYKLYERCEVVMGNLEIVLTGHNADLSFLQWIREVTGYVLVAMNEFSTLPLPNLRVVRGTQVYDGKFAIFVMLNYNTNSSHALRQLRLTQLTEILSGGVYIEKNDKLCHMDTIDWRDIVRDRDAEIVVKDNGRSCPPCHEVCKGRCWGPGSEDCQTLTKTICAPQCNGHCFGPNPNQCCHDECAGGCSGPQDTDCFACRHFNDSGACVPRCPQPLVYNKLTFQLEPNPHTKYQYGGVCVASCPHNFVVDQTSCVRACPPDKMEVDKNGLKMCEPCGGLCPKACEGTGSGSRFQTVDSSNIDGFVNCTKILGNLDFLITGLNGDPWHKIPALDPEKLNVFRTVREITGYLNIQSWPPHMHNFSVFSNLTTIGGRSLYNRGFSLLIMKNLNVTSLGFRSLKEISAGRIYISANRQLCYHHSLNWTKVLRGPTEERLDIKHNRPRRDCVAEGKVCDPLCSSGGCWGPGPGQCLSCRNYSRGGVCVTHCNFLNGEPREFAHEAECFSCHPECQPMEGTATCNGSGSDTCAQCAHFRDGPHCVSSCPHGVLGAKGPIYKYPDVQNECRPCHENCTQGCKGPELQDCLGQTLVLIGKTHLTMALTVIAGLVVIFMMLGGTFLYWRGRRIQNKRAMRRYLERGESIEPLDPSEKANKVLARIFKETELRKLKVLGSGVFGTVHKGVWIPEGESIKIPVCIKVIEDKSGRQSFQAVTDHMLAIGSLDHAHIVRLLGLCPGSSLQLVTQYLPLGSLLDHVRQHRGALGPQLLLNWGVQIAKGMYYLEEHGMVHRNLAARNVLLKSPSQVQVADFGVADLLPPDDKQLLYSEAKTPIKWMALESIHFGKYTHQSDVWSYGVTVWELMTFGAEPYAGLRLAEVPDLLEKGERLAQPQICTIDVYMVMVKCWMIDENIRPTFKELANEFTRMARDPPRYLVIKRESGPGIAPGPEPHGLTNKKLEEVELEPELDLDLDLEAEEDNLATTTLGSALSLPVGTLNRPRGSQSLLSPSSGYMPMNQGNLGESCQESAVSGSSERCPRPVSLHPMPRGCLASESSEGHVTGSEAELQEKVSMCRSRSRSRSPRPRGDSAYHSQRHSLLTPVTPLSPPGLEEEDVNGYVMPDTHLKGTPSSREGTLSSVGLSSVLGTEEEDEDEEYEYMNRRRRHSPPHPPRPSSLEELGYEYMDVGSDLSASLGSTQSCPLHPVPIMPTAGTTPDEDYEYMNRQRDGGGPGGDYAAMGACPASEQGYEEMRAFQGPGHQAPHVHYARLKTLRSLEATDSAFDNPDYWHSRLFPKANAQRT
UniProt Q15303, whole entry R711C: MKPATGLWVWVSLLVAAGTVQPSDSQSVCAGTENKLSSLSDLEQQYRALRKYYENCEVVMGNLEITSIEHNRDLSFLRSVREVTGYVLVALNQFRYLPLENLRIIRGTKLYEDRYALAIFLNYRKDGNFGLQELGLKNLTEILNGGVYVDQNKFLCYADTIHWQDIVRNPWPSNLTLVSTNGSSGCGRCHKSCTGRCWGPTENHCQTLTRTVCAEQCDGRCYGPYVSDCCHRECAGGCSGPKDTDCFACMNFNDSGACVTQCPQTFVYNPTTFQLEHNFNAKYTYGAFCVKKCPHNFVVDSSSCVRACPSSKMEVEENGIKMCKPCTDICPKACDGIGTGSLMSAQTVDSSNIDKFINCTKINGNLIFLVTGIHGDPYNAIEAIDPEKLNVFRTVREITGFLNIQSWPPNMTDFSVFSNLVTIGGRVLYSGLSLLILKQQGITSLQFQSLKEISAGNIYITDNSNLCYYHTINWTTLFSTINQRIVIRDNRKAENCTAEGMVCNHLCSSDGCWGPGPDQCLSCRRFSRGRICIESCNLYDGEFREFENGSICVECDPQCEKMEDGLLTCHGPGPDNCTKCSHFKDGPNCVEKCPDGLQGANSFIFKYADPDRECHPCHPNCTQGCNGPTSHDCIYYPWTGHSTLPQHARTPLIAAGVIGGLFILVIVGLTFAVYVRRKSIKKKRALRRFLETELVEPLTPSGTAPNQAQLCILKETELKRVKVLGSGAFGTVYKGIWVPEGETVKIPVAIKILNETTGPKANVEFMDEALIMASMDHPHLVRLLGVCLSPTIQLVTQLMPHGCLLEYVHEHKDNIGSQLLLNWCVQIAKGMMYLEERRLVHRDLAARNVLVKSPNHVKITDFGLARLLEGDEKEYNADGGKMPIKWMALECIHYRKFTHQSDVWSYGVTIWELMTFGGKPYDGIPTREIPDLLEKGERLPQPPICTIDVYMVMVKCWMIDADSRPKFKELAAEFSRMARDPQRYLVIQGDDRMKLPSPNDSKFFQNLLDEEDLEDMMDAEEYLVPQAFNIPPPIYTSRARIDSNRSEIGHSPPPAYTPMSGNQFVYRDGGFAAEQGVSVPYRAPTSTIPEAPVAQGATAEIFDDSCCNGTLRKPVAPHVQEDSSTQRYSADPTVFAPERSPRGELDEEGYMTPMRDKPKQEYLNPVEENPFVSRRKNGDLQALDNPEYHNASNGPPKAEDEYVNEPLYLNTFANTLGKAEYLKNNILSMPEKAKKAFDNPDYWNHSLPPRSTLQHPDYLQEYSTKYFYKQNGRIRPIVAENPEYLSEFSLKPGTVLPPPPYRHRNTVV
UniProt O75460: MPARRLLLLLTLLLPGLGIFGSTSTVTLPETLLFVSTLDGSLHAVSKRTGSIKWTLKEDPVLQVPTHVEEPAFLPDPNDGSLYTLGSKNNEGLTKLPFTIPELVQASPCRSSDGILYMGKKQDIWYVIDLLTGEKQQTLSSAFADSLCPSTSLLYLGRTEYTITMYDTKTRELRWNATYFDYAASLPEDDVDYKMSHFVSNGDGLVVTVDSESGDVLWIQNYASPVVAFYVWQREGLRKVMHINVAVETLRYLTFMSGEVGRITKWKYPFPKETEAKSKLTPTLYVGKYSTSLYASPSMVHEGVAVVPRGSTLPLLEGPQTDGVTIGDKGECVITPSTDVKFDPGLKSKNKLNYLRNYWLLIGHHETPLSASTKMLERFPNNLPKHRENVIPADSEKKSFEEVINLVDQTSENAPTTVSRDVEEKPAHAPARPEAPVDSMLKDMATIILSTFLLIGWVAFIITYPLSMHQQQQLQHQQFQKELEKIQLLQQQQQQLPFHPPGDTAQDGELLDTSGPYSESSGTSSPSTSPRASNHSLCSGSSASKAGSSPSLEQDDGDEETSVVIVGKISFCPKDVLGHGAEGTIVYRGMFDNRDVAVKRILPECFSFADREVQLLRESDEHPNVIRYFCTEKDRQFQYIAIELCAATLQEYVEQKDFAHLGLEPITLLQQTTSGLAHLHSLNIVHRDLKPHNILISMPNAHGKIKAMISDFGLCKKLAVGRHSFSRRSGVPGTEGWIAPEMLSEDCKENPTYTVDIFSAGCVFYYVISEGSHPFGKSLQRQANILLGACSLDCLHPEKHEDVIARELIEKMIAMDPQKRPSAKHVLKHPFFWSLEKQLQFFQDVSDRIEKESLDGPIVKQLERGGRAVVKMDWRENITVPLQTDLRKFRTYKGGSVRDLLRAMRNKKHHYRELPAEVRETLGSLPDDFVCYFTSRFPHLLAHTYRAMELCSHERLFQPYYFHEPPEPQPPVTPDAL
UniProt P22607, whole entry, looked up: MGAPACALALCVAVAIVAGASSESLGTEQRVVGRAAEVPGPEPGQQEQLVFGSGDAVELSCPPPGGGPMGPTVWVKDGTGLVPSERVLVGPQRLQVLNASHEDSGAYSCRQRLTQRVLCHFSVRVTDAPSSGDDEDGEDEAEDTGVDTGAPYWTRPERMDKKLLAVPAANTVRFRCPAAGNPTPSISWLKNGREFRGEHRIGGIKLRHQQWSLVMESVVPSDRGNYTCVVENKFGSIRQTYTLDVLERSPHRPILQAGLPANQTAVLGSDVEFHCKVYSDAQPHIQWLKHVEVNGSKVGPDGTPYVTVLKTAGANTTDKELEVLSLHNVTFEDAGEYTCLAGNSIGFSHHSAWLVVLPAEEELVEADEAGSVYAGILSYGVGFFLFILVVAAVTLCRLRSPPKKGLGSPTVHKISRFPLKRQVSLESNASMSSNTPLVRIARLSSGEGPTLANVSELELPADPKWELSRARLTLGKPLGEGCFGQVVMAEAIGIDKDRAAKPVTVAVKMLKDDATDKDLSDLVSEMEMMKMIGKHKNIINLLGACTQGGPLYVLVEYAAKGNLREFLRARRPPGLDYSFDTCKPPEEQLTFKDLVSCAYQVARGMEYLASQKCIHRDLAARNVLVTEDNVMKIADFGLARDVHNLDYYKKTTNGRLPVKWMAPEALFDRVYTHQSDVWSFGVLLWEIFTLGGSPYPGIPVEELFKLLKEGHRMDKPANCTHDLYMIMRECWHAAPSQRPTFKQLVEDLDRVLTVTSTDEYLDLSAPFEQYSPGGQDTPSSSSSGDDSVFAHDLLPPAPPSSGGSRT

Assays:
Experiment in all cases: number of time points (of 5) at which kinase-Nluc abundance scored as decreased, DMSO-normalised (count); higher = more persistent destabilization
Details in all cases: K562; 2-18 h
CSNK1A1 = CSNK1A1 (UniProt P48729)
CSNK1D = CSNK1D (UniProt P48730)
DDR1 = DDR1 (UniProt Q08345)
DYRK1B = DYRK1B (UniProt Q9Y463)
DYRK2 = DYRK2 (UniProt Q92630)
EGFR = EGFR (UniProt P00533)
EGFR_G719S = EGFR_G719S (UniProt P00533)
EGFR_G719S_T790M = EGFR_G719S_T790M (UniProt P00533)
EGFR_L718V = EGFR_L718V (UniProt P00533)
EGFR_L858R = EGFR_L858R (UniProt P00533)
EGFR_L861Q = EGFR_L861Q (UniProt P00533)
EGFR_T790M = EGFR_T790M (UniProt P00533)
EPHA2 = EPHA2 (UniProt P29317)
ERBB3 = ERBB3 (UniProt P21860)
[1] = target: ERBB4_R711C (clone: ERBB4_mut) (UniProt Q15303)
ERN1 = ERN1 (UniProt O75460)
FGFR1 = FGFR1 (UniProt P11362)
FGFR2 = FGFR2 (UniProt P21802)
FGFR3 = FGFR3 (UniProt P22607)
FGR = FGR (UniProt P09769)

Row | SMILES | number of time points (CSNK1A1) | number of time points (CSNK1D) | number of time points (DDR1) | number of time points (DYRK1B) | number of time points (DYRK2) | number of time points (EGFR) | number of time points (EGFR_G719S) | number of time points (EGFR_G719S_T790M) | number of time points (EGFR_L718V) | number of time points (EGFR_L858R) | number of time points (EGFR_L861Q) | number of time points (EGFR_T790M) | number of time points (EPHA2) | number of time points (ERBB3) | number of time points [1] | number of time points (ERN1) | number of time points (FGFR1) | number of time points (FGFR2) | number of time points (FGFR3) | number of time points (FGR)
1 | Nc1nccc(Oc2ccc(NC(=O)c3c[nH]cc(-c4ccc(F)cc4)c3=O)cc2F)c1Cl (10 µM) | 0 | 3 | 0 | 1 | 4 | 1 | 0 | 0 | 0 | 0 | 0 | 0 | 0 | 4 | 4 | 0 | 4 | 4 | 0 | 0
2 | Cc1cccc(-c2[nH]c(C(C)(C)C)nc2-c2ccc3nccnc3c2)n1 (10 µM) | 0 | 0 | 0 | 0 | 0 | 0 | 0 | 0 | 0 | 0 | 0 | 0 | 0 | 0 | 0 | 0 | 0 | 0 | 0 | 0
3 | COc1cc(N(C)CCN(C)C)c(N)cc1Nc1nccc(-c2cn(C)c3ccccc23)n1 [Mutated EGFR-IN-1] (10 µM) | 0 | 0 | 0 | 0 | 0 | 0 | 0 | 0 | 0 | 0 | 1 | 0 | 0 | 0 | 0 | 0 | 0 | 0 | 0 | 0
4 | CNc1nc(Nc2cn(C(C)(C)C#N)nc2C)ncc1C(F)(F)F (10 µM) | 0 | 0 | 0 | 0 | 0 | 0 | 0 | 0 | 0 | 0 | 0 | 0 | 0 | 0 | 0 | 0 | 0 | 0 | 0 | 0
5 | CC(C)(O)[C@H]1CC[C@H](Nc2ccc3ncc(-c4cccc(C(F)(F)F)c4)n3n2)CC1 (10 µM) | 0 | 0 | 0 | 0 | 0 | 0 | 0 | 0 | 0 | 0 | 0 | 0 | 0 | 0 | 0 | 0 | 0 | 0 | 0 | 0
6 | O=C(Nc1cccc(C(F)(F)F)c1)c1cccc2cc(Oc3cc(CO)ncn3)ccc12 (10 µM) | 0 | 0 | 0 | 0 | 0 | 0 | 0 | 0 | 0 | 0 | 0 | 0 | 0 | 0 | 0 | 0 | 0 | 0 | 0 | 0
7 | Cc1cc(Nc2nc(CC3(C(=O)O)CCN(C(=O)c4cccc(Cl)c4Cl)CC3)ccc2F)n[nH]1 (10 µM) | 0 | 2 | 1 | 0 | 2 | 0 | 1 | 1 | 0 | 1 | 2 | 0 | 0 | 0 | 3 | 0 | 0 | 1 | 0 | 0
8 | O=c1[nH]c(C2CCCN2)nc2c1oc1ccc(Cl)cc12 (stereo not given) [XL413 (hydrochloride)] (10 µM) | 0 | 0 | 0 | 0 | 0 | 0 | 0 | 0 | 0 | 0 | 0 | 0 | 0 | 0 | 0 | 0 | 0 | 0 | 0 | 0
9 | CCCCCCCCCCCCCCCCOP(=O)([O-])OCC[N+](C)(C)C [Miltefosine] (10 µM) | 0 | 0 | 0 | 0 | 0 | 0 | 0 | 0 | 0 | 0 | 0 | 0 | 0 | 0 | 0 | 0 | 0 | 0 | 0 | 0
10 | CCN(CC)c1cc2oc(=O)c(-c3nc4ccccc4o3)cc2cc1C (2.5 µM) | 0 | 0 | 0 | 0 | 0 | 1 | 0 | 0 | 0 | 0 | 0 | 0 | 0 | 0 | 0 | 0 | 0 | 0 | 0 | 0
11 | c1ccc(-c2nc(=NCCN3CCOCC3)sn2-c2ccccc2)cc1 [VP3.15 (dihydrobromide)] (10 µM) | 0 | 0 | 0 | 0 | 0 | 0 | 0 | 0 | 0 | 0 | 0 | 0 | 0 | 0 | 0 | 0 | 0 | 0 | 0 | 0
12 | CC[C@@](C)(Nc1ccnc(-c2c[nH]c3ncccc23)n1)C(=O)NCC(F)(F)F [Decernotinib] (10 µM) | 0 | 0 | 0 | 0 | 0 | 0 | 0 | 0 | 0 | 0 | 0 | 0 | 0 | 0 | 0 | 0 | 0 | 0 | 0 | 0
13 | COc1ccc(N=Nc2c(N)n[nH]c2N)cc1 (10 µM) | 0 | 0 | 0 | 0 | 0 | 0 | 0 | 0 | 0 | 0 | 0 | 0 | 0 | 0 | 0 | 0 | 0 | 0 | 0 | 0
14 | Oc1cc(O)c2c(c1)OC1(c3ccc(O)c(O)c3)Oc3cc(O)c4c(c3C2C1O)OC(c1ccc(O)c(O)c1)C(O)C4 (stereo not given) [Procyanidin A1] (10 µM) | 0 | 0 | 0 | 0 | 0 | 0 | 0 | 0 | 0 | 0 | 0 | 0 | 0 | 0 | 0 | 0 | 0 | 0 | 0 | 0
15 | CCN(CC)c1ccc2cc(-c3nc4cc(C)ccc4o3)c(=O)oc2c1 (10 µM) | 0 | 0 | 0 | 0 | 0 | 2 | 0 | 0 | 0 | 0 | 0 | 0 | 0 | 0 | 0 | 0 | 0 | 0 | 0 | 0
16 | Cn1cc(C2=C(c3cn(CCCSC(=N)N)c4ccccc34)C(=O)NC2=O)c2ccccc21 [Ro 31-8220 (mesylate)] (2.5 µM) | 0 | 0 | 0 | 0 | 3 | 0 | 1 | 1 | 0 | 0 | 3 | 0 | 0 | 1 | 4 | 0 | 0 | 3 | 0 | 0
17 | CC(C)CCNC(=O)c1ccc2c(c1)nc(Nc1n[nH]c3ccc(-c4ccccc4OC(F)(F)F)cc13)n2C1CCC(O)CC1 (stereo not drawn) [IRAK inhibitor 4 (trans)] (10 µM) | 0 | 0 | 0 | 0 | 0 | 0 | 0 | 0 | 0 | 0 | 0 | 0 | 0 | 0 | 0 | 0 | 0 | 0 | 0 | 0
18 | Cc1ccc(-c2csc3ncnc(SCCC(=O)O)c23)cc1 (10 µM) | 0 | 0 | 0 | 0 | 0 | 0 | 0 | 0 | 0 | 0 | 0 | 0 | 0 | 0 | 0 | 0 | 0 | 0 | 0 | 0
19 | CC(C)(C[C@H](N)C(=O)O)C(F)F [NV-5138 (hydrochloride)] (10 µM) | 0 | 0 | 0 | 0 | 0 | 0 | 0 | 0 | 0 | 0 | 0 | 0 | 0 | 0 | 0 | 0 | 0 | 0 | 0 | 0
20 | COc1ccc(/C=C/C(=O)C2(C(=O)/C=C/c3ccc(OC)c(OC)c3)CCCCC2)cc1OC (2.5 µM) | 0 | 0 | 0 | 0 | 2 | 0 | 0 | 0 | 0 | 0 | 0 | 0 | 0 | 2 | 0 | 0 | 0 | 0 | 0 | 0
21 | C=CC(=O)Nc1cc(-n2c(=O)ccc3cnc4ccc(-c5ccc(NS(C)(=O)=O)cc5)cc4c32)ccc1C (10 µM) | 0 | 0 | 0 | 0 | 0 | 0 | 0 | 0 | 0 | 0 | 0 | 0 | 3 | 0 | 0 | 0 | 0 | 0 | 0 | 0
22 | Cc1cccc2c3c(ccc12)C(=O)C1=C(OCC1C)C3=O (stereo not given) [Dihydroisotanshinone I] (2.5 µM) | 0 | 0 | 0 | 0 | 0 | 0 | 0 | 0 | 0 | 0 | 0 | 0 | 0 | 0 | 0 | 0 | 0 | 0 | 0 | 0
23 | COc1ncccc1-c1cnn2ccc(N3CCN(C(=O)OC(C)C)CC3)nc12 (10 µM) | 0 | 0 | 0 | 0 | 0 | 0 | 0 | 4 | 0 | 0 | 1 | 2 | 0 | 0 | 0 | 2 | 0 | 0 | 0 | 0

Reprinted at random: 2 compounds from above.
Row | SMILES | number of time points (CSNK1A1) | number of time points (CSNK1D) | number of time points (DDR1) | number of time points (DYRK1B) | number of time points (DYRK2) | number of time points (EGFR) | number of time points (EGFR_G719S) | number of time points (EGFR_G719S_T790M) | number of time points (EGFR_L718V) | number of time points (EGFR_L858R) | number of time points (EGFR_L861Q) | number of time points (EGFR_T790M) | number of time points (EPHA2) | number of time points (ERBB3) | number of time points [1] | number of time points (ERN1) | number of time points (FGFR1) | number of time points (FGFR2) | number of time points (FGFR3) | number of time points (FGR)
1 | Nc1nccc(Oc2ccc(NC(=O)c3c[nH]cc(-c4ccc(F)cc4)c3=O)cc2F)c1Cl (10 µM) | 0 | 3 | 0 | 1 | 4 | 1 | 0 | 0 | 0 | 0 | 0 | 0 | 0 | 4 | 4 | 0 | 4 | 4 | 0 | 0
6 | O=C(Nc1cccc(C(F)(F)F)c1)c1cccc2cc(Oc3cc(CO)ncn3)ccc12 (10 µM) | 0 | 0 | 0 | 0 | 0 | 0 | 0 | 0 | 0 | 0 | 0 | 0 | 0 | 0 | 0 | 0 | 0 | 0 | 0 | 0
